These are yes or no findings as the source states them, for the method shown. Binding seen in cells or lysates may run through a third protein. Some entries that bind do so weakly or less than the wild type.

Amino acid sequences for entries named in this document (tags omitted).
UniProt O00308: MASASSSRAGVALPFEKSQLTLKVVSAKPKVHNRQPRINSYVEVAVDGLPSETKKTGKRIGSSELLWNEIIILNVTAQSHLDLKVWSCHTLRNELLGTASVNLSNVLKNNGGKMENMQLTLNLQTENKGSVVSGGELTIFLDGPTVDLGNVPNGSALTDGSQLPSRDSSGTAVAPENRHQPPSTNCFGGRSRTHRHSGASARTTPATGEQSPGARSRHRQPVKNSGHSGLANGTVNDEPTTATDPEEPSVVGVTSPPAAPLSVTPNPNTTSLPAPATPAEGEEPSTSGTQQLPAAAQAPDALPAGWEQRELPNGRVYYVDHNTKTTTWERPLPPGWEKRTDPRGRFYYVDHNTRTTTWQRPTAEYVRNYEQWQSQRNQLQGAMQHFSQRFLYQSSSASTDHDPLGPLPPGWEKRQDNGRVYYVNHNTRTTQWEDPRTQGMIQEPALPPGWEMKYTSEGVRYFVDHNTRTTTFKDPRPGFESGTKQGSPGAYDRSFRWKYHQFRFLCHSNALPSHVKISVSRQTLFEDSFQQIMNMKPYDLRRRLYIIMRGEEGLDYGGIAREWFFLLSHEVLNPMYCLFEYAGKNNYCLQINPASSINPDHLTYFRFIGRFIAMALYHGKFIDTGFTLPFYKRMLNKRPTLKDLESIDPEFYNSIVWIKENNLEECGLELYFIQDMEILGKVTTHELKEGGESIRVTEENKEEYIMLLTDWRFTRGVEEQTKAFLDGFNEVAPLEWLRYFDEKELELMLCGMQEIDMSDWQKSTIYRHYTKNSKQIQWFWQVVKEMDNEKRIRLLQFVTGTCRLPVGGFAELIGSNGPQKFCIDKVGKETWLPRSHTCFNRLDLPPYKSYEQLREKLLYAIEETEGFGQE

For this experiment, the target named is WWP2 (human (endogenous in HUVEC)) (UniProt O00308). Kind of experiment: co-IP; cell extracts (cells not named) incubated with anti-WWP2 or anti-PDCD4 antibody and Protein A/G, 4°C; blotted for PDCD4 or WWP2; IgG as negative control.

B1: Programmed cell death 4 (PDCD4) (protein, UniProt Q53EL6 1-469)
chain: MDVENEQILNVNPADPDNLSDSLFSGDEENAGTEEIKNEINGNWISASSINEARINAKAKRRLRKNSSRDSGRGDSVSDSGSDALRSGLTVPTSPKGRLLDRRSRSGKGRGLPKKGGAGGKGVWGTPGQVYDVEEVDVKDPNYDDDQENCVYETVVLPLDERAFEKTLTPIIQEYFEHGDTNEVAEMLRDLNLGEMKSGVPVLAVSLALEGKASHREMTSKLLSDLCGTVMSTTDVEKSFDKLLKDLPELALDTPRAPQLVGQFIARAVGDGILCNTYIDSYKGTVDCVQARAALDKATVLLSMSKGGKRKDSVWGSGGGQQSVNHLVKEIDMLLKEYLLSGDISEAEHCLKELEVPHFHHELVYEAIIMVLESTGESTFKMILDLLKSLWKSSTITVDQMKRGYERIYNEIPDINLDVPHSYSVLERFVEECFQAGIISKQLRDLCPSRGRKRFVSEGDGGRLKPESY
As for B1, the binding result is reported as “binds”.

The values are drawn from publication PMC9828489.
